Results are given in words; binding and its absence hold for the method and conditions named. In cells and extracts the contact can be indirect.

From paper PMC12413082 come the findings set out here.

In the assay the target is T1, Gephyrin, endogenous (mouse (endogenous in P1 mouse cortex)) (UniProt Q8BUV3).
T1 sequence: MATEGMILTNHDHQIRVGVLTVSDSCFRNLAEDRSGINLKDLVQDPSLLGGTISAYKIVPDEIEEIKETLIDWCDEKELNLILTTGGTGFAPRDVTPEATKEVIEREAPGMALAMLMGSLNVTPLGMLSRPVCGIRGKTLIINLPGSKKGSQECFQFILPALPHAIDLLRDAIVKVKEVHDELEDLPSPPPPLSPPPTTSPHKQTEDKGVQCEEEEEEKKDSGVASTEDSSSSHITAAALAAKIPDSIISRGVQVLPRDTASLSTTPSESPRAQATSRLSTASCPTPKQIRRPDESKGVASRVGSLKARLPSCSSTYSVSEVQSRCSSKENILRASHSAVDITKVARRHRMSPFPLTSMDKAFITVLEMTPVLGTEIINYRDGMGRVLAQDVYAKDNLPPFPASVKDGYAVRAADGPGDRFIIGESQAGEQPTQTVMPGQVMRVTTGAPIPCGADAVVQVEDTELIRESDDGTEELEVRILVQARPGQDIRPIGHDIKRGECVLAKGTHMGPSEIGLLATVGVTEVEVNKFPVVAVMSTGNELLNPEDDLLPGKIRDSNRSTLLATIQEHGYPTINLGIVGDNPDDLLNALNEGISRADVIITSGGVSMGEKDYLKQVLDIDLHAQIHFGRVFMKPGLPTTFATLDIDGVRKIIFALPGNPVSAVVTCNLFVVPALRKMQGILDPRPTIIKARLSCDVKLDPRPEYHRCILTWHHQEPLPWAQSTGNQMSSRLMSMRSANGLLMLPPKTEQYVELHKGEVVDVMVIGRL
Kind of assay: co-IP; endogenous co-IP from cortical protein homogenate of P1 Kif15+/+ mouse; primary antibody overnight at 4 C, agarose beads overnight at 4 C, Western blot. (In general: Immunoblotting shows a protein as a band on a membrane.)

B1: KIF15 (Kinesin-12), endogenous (protein, UniProt Q6P9L6 1-1387)
chain: MAPGCKSELRNVTNSHSNQPSNEGDAIKVFVRIRPAEEGARSADGEQSFCLSVLSQTTLRLHSNPDPKTFVFDYVAGMDTTQESVFSTVAKSIVESCMSGYNGTIFAYGQTGSGKTFTMMGPSDSDNFSHNLRGIIPRSFEYLFSLIDREKEKAGAGKSFLCKCSFIEVYNEQIYDLLDSASVGLYLREHIKKGVFVVGAVEQAVTSAAETYQVLSRGWRNRRVASTSMNRESSRSHAVFTITIESMEKSSETVNIRTSLLNLVDLAGSERQKDTHAEGMRLKEAGNINRSLSCLGQVITALVDVGNGKQRHICYRDSKLTFLLRDSLGGNAKTAIIANVHPGSRCFGETLSTLNFAQRAKLIKNKAVVNEDTQGNVSQLQAEVKRLKEQLSQFTSGQITPESLLARDKEKTNYIEYFLEAMLFFKKSEQEKKSLIEKITQLEDLTLKKEKFIQSNKMIVKFREDQIMRLERLHKEGRGSFLPEEQDRLLSELRDEVQTLREHVEHHPRLAKYAMENHSLREENRRLKLLAPVKRAHEIDAQSIARLEKAFAEVSSTETNDKGLQGFSPKALKESSFFTNTEKLKAQLLQIQTELNNSKQEYEEFKELTRKKQLELESELQSLQKANLNLENLLEATKVCKRQEVSQLNKLHAETLKIITTPTKAYQLCSRLVPKSSPEVGSFGFLCTESSSRLDNDILNEPVPPEMSEQALEAVSEELRTVQEQLSVLQVKLDEEERKNLKLQQNVDKLEHHSTQMQELFSSERSDWTKQQQEHVTQLSDLEKQLQDAQTKNEFLKCEVHDLRIVLNSADKELSLVKLEYSTFKENHEKELSQLSERHVQVQLQLDNARLENEKLLESQACLQDSYDNLQEVMKFEIDQLSKNLQNCKQENETLKSDLHNLVELFEAEKERNNKLSLQFEEDKENSSKEILKVLETVRQEKQKEMAKCEKQMAKIQKLEESLLATENVISSLEKSRESDKELVTNLMNQIQELRISIGEKSETIATLKQELQDINCKYNASLADKEESKELIRRQEVDILELKETLRLRILSEDIERDMLCEDLAHATEQLNMLTEASKKHSGLLQSAQEELTRKEALIQELQHKLNQEKEEVEQKKNEFSLKMRQLEHVMGSATEYPQSPKTPPHFQAHLAKLLETQEQEIEDGRASKTSLQHLVTKLNEDREVKNAEILRMKDQLCEMENLRLESQQLREKNWLLQRQLDDVKRQQESGDQSHPDSQQLKNEHEEIIKERLAKNKLIEEMLKMKTNLEEVQSALHSKEKACHRMSEEIERTRTLESRAFQEKEQLRSKLEEMYEERERTFLEMEMLKKQLEFLAEENGKLVGHQNLHQKIQYVVRLKKENIRLTEETEKLRAENLFLKEKKKEF
Take B1: the binding entry is on record as “no binding”.
